In PMC10163288:
This is one part of the list.

B1: il2ra_site1_2b5i_normal_mot_HHH_b1_01949_af2_000000041_0001_1_19_H_._HHH_b1_05336_af2_0001_0000200009_0000001_0 (protein)
chain: SSSSSEFERVEELFREASELFRNGNPEEARKVLEEALELARETGDPTAAKDLERMLEFANSSSSS
B2: il2ra_site1_2b5i_sap_8_mot_HHH_b1_01409_af2_000000084_0001_1_19_H_._HHH_b2_02411_af2_0001_0000500029_0000001_0_0001_af2pred_0001_af2pred (protein)
chain: SSSSSELVEEAFELFREANELAKNGDPEEARRVLEEALELAERGNTKSLVRSIEWALRQLSSSSS
B3: il2ra_site1_2b5i_sap_21_mot_HHH_b1_05200_af2_000000003_0001_1_20_H_._HHH_b2_02992_0001_0000100004_0000001_0_0001_af2pred_dldesign_0_af2pred (protein)
chain: SSSSSAVREEVLRLIEEARRARAAGRRREALRLLEEAYKLASEADDEELQAEIEELAKELSSSSS
B4: il2ra_site2_2erj_normal_mot_HHH_b2_05866_000000027_0001_43_57_H_._HHH_b2_01310_0001_0000100005_0000001_1 (protein)
chain: SSSSSDHKEAWERVAELLARLAEVSEEELEKLLEEAERLAREVNDPFLERYVEFAERDVKSSSSS
B5: il2ra_site1_3nfp_normal_mot_e80b558ee5422d85aa46efdc370d0602_0001_af2_000000114_0001_54_65_H_._2a31ae49067c61b6421293497c576922_0001_0001_0000100006_0000001_0_a … (protein)
chain: SEEEEELRREAERLDPQLRILLKILERALKRRGDPRAREVIEEVVELAKKNQEEAKRLAREFLRK
B6: il2ra_site1_1z92_sap_19_mot_HHH_b1_05516_af2_000000202_0001_21_38_H_._HHH_b2_07881_0001_0000500017_0000001_0_0001_af2pred_dldesign_0_af2pred (protein)
chain: SSSSSSAFSRKVREACRLANEGKPEEAIKLLEELLAELRAAGRTSAARKVEILLKLALESSSSSS
B7: il2ra_site2_2erj_normal_mot_HHH_b1_00941_000000051_0001_45_58_H_._HHH_b2_06751_0001_0000100004_0000001_0 (protein)
chain: SSSSSDEAERRIEELLEEAKHIEDLREVFRLLNEALRLAQERDDPELLQLVLEAARERLSSSSSS
B8: il2ra_site2_3nfp_sap_23_mot_HHH_b1_08081_af2_000000020_0001_38_50_H_._HHH_b2_05949_af2_0001_0000600023_0000001_0_0001_af2pred_0001_af2pred_1 (protein)
chain: SSSSDEEKRRLLEELERIVENNDDEEFRHVASEISRLAFENEDHELFALLLELIERFENLSSSSS
B9: il2ra_site1_1z92_normal_mot_73a3237f21306322153cb43486d2ff88_0001_1_af2_000000006_0001_34_49_H_._66959ead3e6c57cb3ef8243f3eb758e0_0001_1_0001_0000200022_0000001 … (protein)
chain: SQAEEELLEAVEAEDEEALRAFVRTLLRDTKDPALAAQLLRYLVKKLGLPEEVLERLLALLRELA
B10: il2ra_site2_3nfp_normal_mot_HHH_b1_04762_000000120_0001_42_54_H_._HHH_b1_05779_0001_0000400008_0000001_0 (protein)
chain: SSSSSEAEEYIRAALLLVEEALEQGDPEIARRILEMARKLAEDIKNEELEEEVERLEELLSSSSS
B11: il2ra_site2_3nfp_sap_15_mot_HHH_b1_01080_000000101_0001_40_56_H_._HHH_b1_05979_af2_0001_0000200007_0000001_1_0001 (protein)
chain: SSEEELRELVEEIREVAEEKGDTLLFQMLAVAEWLLELLEKGKLDEEEKEYAEATIRRIYERVVS
B12: il2ra_site1_3nfp_normal_mot_HHH_b1_00630_af2_000000193_0001_42_55_H_._HHH_b2_03971_0001_0000100002_0000001_0 (protein)
chain: SSSSTEELHELSRLVEEAYRALSEGNEEEVRKLLEEARQLAEELNDKVARRLLEEIEKRLSSSSS
B13: il2ra_site1_1z92_sap_28_mot_bd8a29364cd82b069db53908a9e83e48_0001_af2_000000035_0001_34_48_H_._9a199a1b38a1c46b7bc70ae92fd97a63_0001_1_0001_0000200022_0000001_0 … (protein)
chain: SSSSSDKKEVYELFEEAQELLENGNPEEAERVLQEALELAEKLNNELMLRSIRLALSADSSSSSS
B14: il2ra_site2_3nfp_sap_34_mot_HHH_b2_01071_af2_000000008_0001_40_57_H_._4f73251c1d0b1deba3e57965a38797fb_0001_1_0001_0000100010_0000001_0_0001_af2pred_0001_af2pre … (protein)
chain: SSSSDLEEEVERLLEEVERLLKEGDEEEAEKLLKRAATIASEARNHELFAIVTALLEKLDSSSSS
B15: il2ra_site2_2erj_sap_20_mot_HHH_b1_00682_af2_000000112_0001_43_57_H_._HHH_b1_06086_0001_0000100007_0000001_1_0001 (protein)
chain: DLHEVYIAANVVAKAIPDPEELREVVEEIMRLAQEDPEEALRFAEEVIERLDPRLLEQLKELREK
B16: il2ra_site2_3nfp_normal_mot_HHH_b2_07186_000000029_0001_1_18_H_._HHH_b1_01329_0001_0000100001_0000001_0 (protein)
chain: SSSSSDEKLEKMVELAIESAESLGDEEVLERLRELLERAEEEGDFRLLLEAYALIARARRNSSSS
B17: il2ra_site1_1z92_normal_mot_9c3e5e2d2b9ffb70dc788f52fbfab6d5_0001_1_af2_000000019_0001_53_65_H_._HHH_b1_02055_af2_0001_0000100007_0000001_0 (protein)
chain: SSSSEEELEEFAKEVVEKLKKEFDLSEEQEEELQRVAERLIEAGSDPEKIEKILRKLAEANSSSS
B18: il2ra_site1_2b5i_sap_15_mot_0e5a94e4a5addaac739760efb25f0f5d_0001_000000246_0001_18_32_H_._HHH_b2_04525_0001_0000300019_0000001_0_0001 (protein)
chain: SSSSDNELIRFATEVVWRLAYRLGLSREQMKILNELAAELADKGLSEEEIEELLREEAEELSSSS
B19: il2ra_site2_2erj_sap_22_mot_HHH_b2_08005_af2_000000017_0001_39_52_H_._HHH_b2_05393_0001_0000400035_0000001_0_0001 (protein)
chain: SSSSDEELHRLFKLAVRILALIARGNPEEAKELLEELKELAEEANSDNAKEIVETLEKRLSSSSS
B20: il2ra_site1_1z92_sap_14_mot_HHH_b1_00285_000000009_0001_24_39_H_._HHH_b2_00843_0001_0000700058_0000001_0_0001_af2pred_0001_af2pred_1 (protein)
chain: SSSSDEKLRRDARIIVEAAVRAAGLSEEQEEELEEVARRLAEEGFSAHEIARILDEVALRLSSSS
B21: il2ra_site1_2b5i_normal_mot_HHH_b2_04910_000000118_0001_1_19_H_._HHH_b1_00509_0001_0000100007_0000001_0_af2pred_dldesign_0_af2pred (protein)
chain: SSSSDPELAKRLKETLKEADELYATDPAAAKALLEALLKELKAAGKKGFVKFVERVLESLESSSS
B22: il2ra_site2_3nfp_normal_mot_HHH_b2_06150_000000217_0001_39_53_H_._HHH_b1_06882_af2_0001_0000100003_0000001_0 (protein)
chain: SSSSDEEELRELLERIEKLFKEGDDEEARRLIAELTHLAYELNDSEIFFLLAELLFKLAQRSSSS
B23: il2ra_site1_2b5i_normal_mot_HHH_b2_04910_000000118_0001_1_19_H_._HHH_b1_02607_0001_0000300018_0000001_0_af2pred_dldesign_0_af2pred (protein)
chain: SSSSDFAEIRRLIEEADALYKAGKPEEAIKVLEEALKLAKERGAKALVRYIELALEQILASSSSS
B24: il2ra_site2_2erj_normal_mot_HHH_b1_04294_af2_000000096_0001_1_18_H_._HHH_b1_00002_0001_0000600021_0000001_0 (protein)
chain: SSSSDLEEAVEELEQLLREGDPEKVSKVAWELLRILHKVTDPELLREAARVLEEALEFLQKSSSS
B25: il2ra_site1_2b5i_sap_12_mot_HHH_b2_04633_000000097_0001_38_52_H_._HHH_b1_08698_af2_0001_0000200011_0000001_0_0001_af2pred_dldesign_0_af2pred (protein)
chain: SSSSSREELEELLRKLKEAVAAKDLEKAEELAKEIADLADELGDRETIKEAVRLLYRVRIASSSS
B26: il2ra_site1_2b5i_sap_9_mot_HHH_b2_07873_af2_000000005_0001_23_39_H_._HHH_b1_06695_0001_0000100007_0000001_0_0001 (protein)
chain: SSSSNEEARELQELFHEVDRLDKEGDPEEARRLAEEALRLAEELNNRSLFRSLEFALRSLSSSSS
B27: il2ra_site2_3nfp_sap_18_mot_HHH_b2_00822_000000043_0001_41_55_H_._9b27c49f4244f023ba89377d59a42b61_0001_0001_0000200043_0000001_0_0001 (protein)
chain: SSSSSDVEERVRELLEEAEQTEDPEEVRKLLAEAAQLAWEARDPELFFAVAEVLFRLEQSSSSSS
B28: il2ra_site1_1z92_normal_mot_22370d59370c406a0c205a431f537cfa_0001_000000027_0001_1_14_H_._HHH_b1_00743_af2_0001_0000600008_0000001_0 (protein)
chain: SSSDKREVFEVLRKISHLFANGNPEEAEELAERLQEELRKRGDEAALRDVEKFVKLVEERNSSSS
B29: il2ra_site1_2b5i_normal_mot_HHH_b2_04353_af2_000000128_0001_1_17_H_._HHH_b1_06468_af2_0001_0000100002_0000001_0_af2pred_dldesign_0_af2pred (protein)
chain: SSSSSSLEDEVYRLYKEATELYRQGKVEEAKEVLKKALELAKKGKFKVQEKQLKELLEKLSSSSS
B30: il2ra_site1_1z92_sap_17_mot_HHH_b1_07156_000000060_0001_21_38_H_._HEEHE_0687_0001_0000200029_0000001_0_0001 (protein)
chain: SLEEVEEELKKLVNDPAARQAIEIAVKLAKEANLPPEALLRNLAIFARRFGDEELLEAVEELLRK
B31: il2ra_site1_2b5i_sap_7_mot_HHH_b2_07267_000000116_0001_43_56_H_._HHH_b1_01886_0001_0000300022_0000001_0_0001_af2pred_0001_af2pred (protein)
chain: SSSSSWEELLELYREASKLLRNGNPEEAERVLEEALKIAKELGDEKIERQLEHLLELIRGSSSSS
B32: il2ra_site2_3nfp_sap_12_mot_HHH_b2_07840_000000026_0001_18_34_H_._HHH_b1_07725_af2_0001_0000300017_0000001_0_0001 (protein)
chain: DLELAQLVMEARKYADQEVIALLYIILKLARELNDPRLKELLREAAELVEEGNPEEAKEVLEEAK
B33: il2ra_site2_2erj_sap_25_mot_HHH_b2_05486_000000159_0001_39_55_H_._HHH_b1_00992_0001_0000100004_0000001_0_0001 (protein)
chain: SSSSSEELHRLYELANELLHLWAENDEEEAREVAEELLELAEKAQSRTAREVARRILEELSSSSS
B34: il2ra_site2_2erj_sap_23_mot_ca9fcc9ace360711d783d1260e4fbff1_0001_1_af2_000000007_0001_15_32_H_._HHH_b2_04203_af2_0001_0000300022_0000001_0_0001 (protein)
chain: SSSDREEARVHFLAFRAMRLNNNGNPEEAQKVLEEAKEIAEENNNEELREWLEAMERTIKHSSSS
B35: il2ra_site2_3nfp_normal_mot_HHH_b1_05918_af2_000000127_0001_23_40_H_._HHH_b2_06926_0001_0000300016_0000001_0 (protein)
chain: SSSSDEREEYLRAALLLLELAVELGDREAARSLTETAREAAEALNDEEILEALERLIEELESSSS
B36: il2ra_site2_2erj_normal_mot_HHH_b1_08042_000000168_0001_1_18_H_._HHH_b2_03570_0001_0000100007_0000001_0 (protein)
chain: SSSSSEEAERTAKVLEEVMRLFQEGDPEQARELLEELARELEELNDEELLEAVERWLRYLSSSSS
B37: il2ra_site1_3nfp_sap_18_mot_HHH_b2_00809_af2_000000121_0001_23_40_H_._HHH_b2_07147_0001_0000400019_0000001_0_0001_af2pred_0001_af2pred_1 (protein)
chain: SERAEEKLVRFAAERNNPRLLRHLLEVLEKFLGDPEEATEALVKAIAEVLNIPPEEAREIVEEVK

biological target: il2ra, P01589; test: yeast display titration

Apparent Kd, inactive:
B1 no binding seen, B2 no binding seen, B3 no binding seen, B4 no binding seen, B5 no binding seen, B6 no binding seen, B7 no binding seen, B8 no binding seen, B9 no binding seen, B10 no binding seen, B11 no binding seen, B12 no binding seen, B13 no binding seen, B14 no binding seen, B15 no binding seen, B16 no binding seen, B17 no binding seen, B18 no binding seen, B19 no binding seen, B20 no binding seen, B21 no binding seen, B22 no binding seen, B23 no binding seen, B24 no binding seen, B25 no binding seen, B26 no binding seen, B27 no binding seen, B28 no binding seen, B29 no binding seen, B30 no binding seen, B31 no binding seen, B32 no binding seen, B33 no binding seen, B34 no binding seen, B35 no binding seen, B36 no binding seen, B37 no binding seen
